We go through two molecules from paper PMC9085225.

By UniProt entry, the sequences of proteins in these tests, tags left out.
UniProt O88907: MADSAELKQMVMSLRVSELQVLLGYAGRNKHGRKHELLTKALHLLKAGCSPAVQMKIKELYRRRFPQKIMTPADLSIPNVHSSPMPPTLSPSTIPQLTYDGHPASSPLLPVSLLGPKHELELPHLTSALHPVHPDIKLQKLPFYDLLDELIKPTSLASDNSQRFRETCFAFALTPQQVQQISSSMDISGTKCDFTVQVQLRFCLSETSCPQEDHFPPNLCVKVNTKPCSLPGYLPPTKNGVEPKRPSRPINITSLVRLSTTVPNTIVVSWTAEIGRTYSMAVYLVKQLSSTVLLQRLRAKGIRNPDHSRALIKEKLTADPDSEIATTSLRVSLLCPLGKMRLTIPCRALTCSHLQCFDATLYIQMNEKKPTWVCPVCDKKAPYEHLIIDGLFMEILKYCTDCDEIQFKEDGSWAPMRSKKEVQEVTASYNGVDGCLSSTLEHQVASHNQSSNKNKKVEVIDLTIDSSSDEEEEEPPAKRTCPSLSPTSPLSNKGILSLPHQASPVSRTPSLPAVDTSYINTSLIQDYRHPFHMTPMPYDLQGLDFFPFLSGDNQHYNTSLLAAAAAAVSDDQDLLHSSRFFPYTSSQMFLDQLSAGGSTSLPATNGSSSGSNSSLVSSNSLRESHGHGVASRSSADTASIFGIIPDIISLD

Where two headings read alike, the source gives them in different places. No constants are given. Whether binding was seen depends on the method and setting. In cells and extracts the contact can be indirect. Some results given as binding are weak or reduced against the parent protein; the word gives no strength.

Experiment [1] deals with Ubiquitin Conjugating Enzyme E2I (UBE2I) (mouse (endogenous in TC-1)) (UniProt P63280). The experiment can be described thus: co-IP; cells lysed in RIPA lysis buffer; supernatant incubated with antibody-precoated agarose beads; Western blotting; IgG antibody as control. Background: Immunoblotting shows a protein as a band on a membrane.
The target is the same in experiment [2]. The experiment is described as above. This is another data set of the same source.

Regarding “protein inhibitor of activated signal transducer and activators of transcription 1 (PIAS1) (from UniProt O88907 1-651)”, the binding result in experiment [1] is given as “binds”.

B1: nuclear receptor interacting protein 1 (NRIP1) (protein, UniProt Q8CBD1 1-1161)
chain: MTHGEELGSDVHQDSIVLTYLEGLLMHQAAGGSGTAINKKSAGHKEEDQNFNLSGSAFPSCQSNGPTVSTQTYQGSGMLHLKKARLLQSSEDWNAAKRKRLSDSIVNLNVKKEALLAGMVDSVPKGKQDSTLLASLLQSFSSRLQTVALSQQIRQSLKEQGYALSHESLKVEKDLRCYGVASSHLKTLLKKSKTKDQKSGPTLPDVTPNLIRDSFVESSHPAVGQSGTKVMSEPLSCAARLQAVASMVEKRASPAASPKPSVACSQLALLLSSEAHLQQYSREHALKTQNAHQVASERLAAMARLQENGQKDVGSSQLSKGVSGHLNGQARALPASKLVANKNNAATFQSPMGVVPSSPKNTSYKNSLERNNLKQAANNSLLLHLLKSQTIPTPMNGHSQNERASSFESSTPTTIDEYSDNNPSFTDDSSGDESSYSNCVPIDLSCKHRIEKPEAERPVSLENLTQSLLNTWDPKIPGVDIKEDQDTSTNSKLNSHQKVTLLQLLLGHKSEETVERNASPQDIHSDGTKFSPQNYTRTSVIESPSTNRTTPVSTPPLYTASQAESPINLSQHSLVIKWNSPPYACSTPASKLTNTAPSHLMDLTKGKESQAEKPAPSEGAQNSATFSASKLLQNLAQCGLQSSGPGEEQRPCKQLLSGNPDKPLGLIDRLNSPLLSNKTNAAEESKAFSSQPAGPEPGLPGCEIENLLERRTVLQLLLGNSSKGKNEKKEKTPARDEAPQEHSERAANEQILMVKIKSEPCDDFQTHNTNLPLNHDAKSAPFLGVTPAIHRSTAALPVSEDFKSEPASPQDFSFSKNGLLSRLLRQNQESYPADEQDKSHRNSELPTLESKNICMVPKKRKLYTEPLENPFKKMKNTAVDTANHHSGPEVLYGSLLHQEELKFSRNELDYKYPAGHSSASDGDHRSWARESKSFNVLKQLLLSENCVRDLSPHRSDSVPDTKKKGHKNNAPGSKPEFGISSLNGLMYSSPQPGSCVTDHRTFSYPGMVKTPLSPPFPEHLGCVGSRPEPGLLNGCSVPGEKGPIKWVIADMDKNEYEKDSPRLTKTNPILYYMLQKGGGNSVTTQETQDKDIWREPASAESLSQVTVKEELLPAAETKASFFNLRSPYNSHMGNNASRPHSTNGEVYGLLGNALTIKKESE
On to B1, for which the binding entry in experiment [2] is “binds”.
